Measurements published in the supplement of paper PMC7646827.
Structures can show the parent of a compound that is named as a salt. Single values are uncertain, as repeats are few or missing.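 All cells are established human bladder cancer lines, one derived from a patient-derived xenograft. A luminescent ATP assay measured viability as percent inhibition relative to vehicle across seven dilutions. The paper rates scores above 59 very active, 30–59 active, 21–29 semi-active, 9–20 low active, below 9 inactive.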

Assays:
Assay in all cases: drug sensitivity score DSS3 (score 0-100); higher = more sensitive; extreme values may be limits of the assay
Conditions in all cases: culture: 3D, ultra-low attachment; treatment time: 5 days
5637 = test system: 5637
BC8149 = test system: BC8149
J82 = test system: J82
SCaBER = test system: SCaBER
SW780 = test system: SW780
T-24 = test system: T-24
TCCSUP = test system: TCCSUP
UM-UC-12 = test system: UM-UC-12
UM-UC-14 = test system: UM-UC-14
UM-UC-15 = test system: UM-UC-15
UM-UC-17 = test system: UM-UC-17
UM-UC-18 = test system: UM-UC-18
UM-UC-1 = test system: UM-UC-1
UM-UC-3 = test system: UM-UC-3
UM-UC-5 = test system: UM-UC-5
UM-UC-6 = test system: UM-UC-6
UM-UC-9 = test system: UM-UC-9

Structure (SMILES) | drug sensitivity score DSS3 5637 | drug sensitivity score DSS3 (BC8149) | drug sensitivity score DSS3 (J82) | drug sensitivity score DSS3 (SCaBER) | drug sensitivity score DSS3 (SW780) | drug sensitivity score DSS3 (T-24) | drug sensitivity score DSS3 (TCCSUP) | drug sensitivity score DSS3 (UM-UC-12) | drug sensitivity score DSS3 (UM-UC-14) | drug sensitivity score DSS3 (UM-UC-15) | drug sensitivity score DSS3 (UM-UC-17) | drug sensitivity score DSS3 (UM-UC-18) | drug sensitivity score DSS3 (UM-UC-1) | drug sensitivity score DSS3 (UM-UC-3) | drug sensitivity score DSS3 (UM-UC-5) | drug sensitivity score DSS3 (UM-UC-6) | drug sensitivity score DSS3 (UM-UC-9)
CN(NC(=O)CC(=O)NN(C)C(=S)c1ccccc1)C(=S)c1ccccc1 [Elesclomol (STA-4783)] (max dose 10000 nM) | 0.833 | 1.44 | 1.22 | 0 | 0 | 0.000754 | 1.14 | 0 | 0 | 0 | 0.578 | 2.26 | 0 | 0 | 0 | 0 | 5.01
Nc1ccccc1NC(=O)c1ccc(CNC(=O)OCc2cccnc2)cc1 [Entinostat, Entinostat (MS-275)] (max dose 10000 nM) | 8.45 | 18.4 | 7.36 | 0 | 0.423 | 3.93 | 16.7 | 3.05 | 4.61 | 3.19 | 8.82 | 8.5 | 1.61 | 3.59 | 0 | 0 | 5.53
CNC(=O)c1ccc(N2C(=S)N(c3ccc(C#N)c(C(F)(F)F)c3)C(=O)C2(C)C)cc1F [Enzalutamide (MDV3100)] (max dose 10000 nM) | 0 | 0 | 0 | 1.89 | 0 | 0 | 1.1 | 0 | 0 | 0 | 0 | 0 | 0 | 0 | 0 | 0 | 0
CCCCc1ncc(/C=C(\Cc2cccs2)C(=O)O)n1Cc1ccc(C(=O)O)cc1 [Eprosartan Mesylate] (max dose 10000 nM) | 0 | 0 | 0 | 0 | 0 | 0.103 | 0 | 0 | 0 | 0 | 0 | 0 | 0 | 0 | 0 | 0 | 0
C#Cc1cccc(Nc2ncnc3cc(OCCOC)c(OCCOC)cc23)c1 [Erlotinib, Erlotinib HCl (OSI-744)] (max dose 10000 nM) | 15.4 | 0 | 0 | 5.13 | 0.185 | 1.17 | 9.9 | 1.41 | 3.37 | 0 | 4.75 | 4.56 | 0.144 | 4.09 | 0 | 8.11 | 0.788
C[C@]12CC[C@@H]3c4ccc(O)cc4CC[C@H]3[C@@H]1CC[C@@H]2O [Estradiol] (max dose 10000 nM) | 0 | 0 | 0 | 0 | 0 | 0 | 0 | 0.154 | 0 | 0 | 0 | 0 | 0 | 0 | 0 | 0 | 0
C[C@]12CC[C@@H]3c4ccc(O)cc4CC[C@H]3[C@@H]1CCC2=O [Estrone] (max dose 10000 nM) | 10.2 | 2.31 | 0 | 0 | 0 | 0 | 8.38 | 0 | 0.548 | 0 | 6.69 | 3.87 | 4.07 | 1.19 | 0 | 4.52 | 0
COc1cc([C@@H]2c3cc4c(cc3[C@@H](O[C@@H]3O[C@@H]5CO[C@@H](C)O[C@H]5[C@H](O)[C@H]3O)[C@H]3COC(=O)[C@H]23)OCO4)cc(OC)c1O [Etoposide] (max dose 10000 nM) | 15 | 12.8 | 2.67 | 10.8 | 0 | 0 | 11.7 | 0 | 15.9 | 0 | 1.53 | 11.4 | 2.94 | 2 | 1.48 | 5.19 | 0
C=C1C[C@@H]2[C@H](CC[C@]3(C)C(=O)CC[C@@H]23)[C@@]2(C)C=CC(=O)C=C12 [Exemestane] (max dose 10000 nM) | 4.02 | 0.026 | 2.29 | 0 | 0 | 0 | 3.96 | 0 | 0.547 | 0 | 1.5 | 5.38 | 1.2 | 0 | 0 | 0.906 | 0
CN(C)C(=O)/C(C#N)=C/c1ccc(-c2nc3cnc4[nH]ccc4c3n2C2CCCCC2)o1 [FM-381] (max dose 10000 nM) | 0.202 | 0.406 | 0 | 0 | 0 | 0 | 0 | 0 | 0 | 7.01 | 0.373 | 0.108 | 0 | 0.423 | 0 | 0 | 0
COC(=O)[C@H](CCSC)NC(=O)c1ccc(NC[C@@H](N)CS)cc1-c1ccccc1 [FTI 277 HCl] (max dose 10000 nM) | 8.15 | 2.24 | 0 | 0 | 0 | 0 | 5.38 | 0 | 0.741 | 0 | 1.08 | 0 | 36.1 | 1.16 | 0 | 2.32 | 0
Cc1nc(-c2ccc(OCC(C)C)c(C#N)c2)sc1C(=O)O [Febuxostat] (max dose 10000 nM) | 0.648 | 0 | 0 | 0 | 0 | 0 | 1.96 | 0 | 0 | 0 | 0 | 0.199 | 0.457 | 0.162 | 0 | 0 | 0
CN1CC[C@H](c2c(O)cc(O)c3c(=O)cc(-c4ccccc4Cl)oc23)[C@H](O)C1 [Flavopiridol HCl] (max dose 10000 nM) | 20.3 | 26.6 | 22.7 | 35.8 | 4.26 | 16.8 | 24.9 | 29.7 | 7.33 | 15.8 | 19.6 | 26.6 | 20.3 | 24.9 | 15.3 | 16.5 | 15.9
CC(C)C(=O)Nc1ccc([N+](=O)[O-])c(C(F)(F)F)c1 [Flutamide] (max dose 10000 nM) | 2.52 | 0 | 0 | 0 | 0 | 0 | 2.95 | 0.342 | 0 | 0 | 0.275 | 0 | 0 | 0.413 | 0 | 0 | 0
C[C@]12CCC(=O)C(O)=C1CC[C@@H]1[C@@H]2CC[C@]2(C)C(=O)CC[C@@H]12 [Formestane] (max dose 10000 nM) | 0 | 1.55 | 0 | 0 | 0 | 0 | 2.38 | 0 | 0.77 | 0 | 0.112 | 0.333 | 0 | 0.689 | 0 | 0 | 0
CNC(=O)c1c(C)oc2cc(Oc3ncnc4cc(OC)c(OC)cc34)ccc12 [Fruquintinib] (max dose 10000 nM) | 1.27 | 1.12 | 0 | 0 | 0 | 0 | 1.35 | 1.05 | 2.25 | 0 | 0 | 2.82 | 1.22 | 0.767 | 0 | 0.225 | 0.00804
CN[C@@H](C)C(=O)N[C@H](C(=O)N1CCC[C@H]1C(=O)Nc1snnc1-c1ccccc1)C1CCCCC1 [GDC-0152] (max dose 10000 nM) | 0 | 2.62 | 0 | 3.38 | 0 | 0 | 0 | 0 | 0 | 33.2 | 0.1 | 0 | 0 | 0 | 0 | 0 | 0
OCCn1cc(-c2ccc3c(c2)CC/C3=N\O)c(-c2ccncc2)n1 [GDC-0879] (max dose 10000 nM) | 0 | 0 | 0 | 0 | 0 | 0 | 0.6 | 0 | 1.57 | 0 | 0 | 0 | 0 | 0 | 0 | 0.0312 | 0
CCCCOc1nc(N)c2c(n1)N(Cc1cccc(CN3CCCC3)c1)CC(=O)N2 [GS-9620] (max dose 10000 nM) | 0 | 0 | 0 | 0 | 0 | 0 | 0 | 0 | 0.000305 | 0 | 0 | 0 | 0 | 0 | 0 | 0 | 0
O=C(NCCS(=O)(=O)c1ccc(C(F)(F)F)cn1)c1ccc(Cl)cc1 [GSK3787] (max dose 10000 nM) | 0 | 0 | 0 | 0 | 0 | 0 | 0 | 0 | 0 | 0 | 0 | 0 | 0 | 0 | 0 | 0 | 0
c1ccc([C@@H]2C[C@H]2NC2CCNCC2)cc1 [GSK-LSD1 2HCl] (max dose 10000 nM) | 0.0295 | 13.7 | 0 | 0 | 0 | 0 | 1.67 | 0.619 | 0.648 | 0 | 0.0168 | 0 | 0 | 0 | 0 | 0.00154 | 0
O=C(O)Cc1cccc(OCCCN(Cc2cccc(C(F)(F)F)c2Cl)CC(c2ccccc2)c2ccccc2)c1 [GW3965 HCl] (max dose 10000 nM) | 0.404 | 5.11 | 0 | 1.04 | 0 | 0 | 11.1 | 6.35 | 1.81 | 0 | 0.455 | 1.55 | 0.0775 | 4.13 | 0 | 0.599 | 0
O=C1Nc2ccc(I)cc2/C1=C/c1cc(Br)c(O)c(Br)c1 [GW5074] (max dose 10000 nM) | 3.68 | 25.6 | 3.49 | 7.83 | 2.98 | 0 | 2.07 | 10.9 | 10.1 | 0.725 | 0 | 2.39 | 0.204 | 0.416 | 0 | 0 | 0
O=C(O)CCc1ccc(NCc2cccc(Oc3ccccc3)c2)cc1 [GW9508] (max dose 10000 nM) | 0 | 0 | 0 | 0 | 0 | 0 | 0 | 0 | 0 | 0 | 0 | 0 | 0 | 0 | 0 | 0 | 0

Ordered by formula weight (smallest number first): part of the list above
Structure (SMILES) | drug sensitivity score DSS3 5637 | drug sensitivity score DSS3 (BC8149) | drug sensitivity score DSS3 (J82) | drug sensitivity score DSS3 (SCaBER) | drug sensitivity score DSS3 (SW780) | drug sensitivity score DSS3 (T-24) | drug sensitivity score DSS3 (TCCSUP) | drug sensitivity score DSS3 (UM-UC-12) | drug sensitivity score DSS3 (UM-UC-14) | drug sensitivity score DSS3 (UM-UC-15) | drug sensitivity score DSS3 (UM-UC-17) | drug sensitivity score DSS3 (UM-UC-18) | drug sensitivity score DSS3 (UM-UC-1) | drug sensitivity score DSS3 (UM-UC-3) | drug sensitivity score DSS3 (UM-UC-5) | drug sensitivity score DSS3 (UM-UC-6) | drug sensitivity score DSS3 (UM-UC-9)
Cc1nc(-c2ccc(OCC(C)C)c(C#N)c2)sc1C(=O)O [Febuxostat] (max dose 10000 nM) | 0.648 | 0 | 0 | 0 | 0 | 0 | 1.96 | 0 | 0 | 0 | 0 | 0.199 | 0.457 | 0.162 | 0 | 0 | 0
O=C(O)CCc1ccc(NCc2cccc(Oc3ccccc3)c2)cc1 [GW9508] (max dose 10000 nM) | 0 | 0 | 0 | 0 | 0 | 0 | 0 | 0 | 0 | 0 | 0 | 0 | 0 | 0 | 0 | 0 | 0
Nc1ccccc1NC(=O)c1ccc(CNC(=O)OCc2cccnc2)cc1 [Entinostat, Entinostat (MS-275)] (max dose 10000 nM) | 8.45 | 18.4 | 7.36 | 0 | 0.423 | 3.93 | 16.7 | 3.05 | 4.61 | 3.19 | 8.82 | 8.5 | 1.61 | 3.59 | 0 | 0 | 5.53
O=C(NCCS(=O)(=O)c1ccc(C(F)(F)F)cn1)c1ccc(Cl)cc1 [GSK3787] (max dose 10000 nM) | 0 | 0 | 0 | 0 | 0 | 0 | 0 | 0 | 0 | 0 | 0 | 0 | 0 | 0 | 0 | 0 | 0
COC(=O)[C@H](CCSC)NC(=O)c1ccc(NC[C@@H](N)CS)cc1-c1ccccc1 [FTI 277 HCl] (max dose 10000 nM) | 8.15 | 2.24 | 0 | 0 | 0 | 0 | 5.38 | 0 | 0.741 | 0 | 1.08 | 0 | 36.1 | 1.16 | 0 | 2.32 | 0
CN[C@@H](C)C(=O)N[C@H](C(=O)N1CCC[C@H]1C(=O)Nc1snnc1-c1ccccc1)C1CCCCC1 [GDC-0152] (max dose 10000 nM) | 0 | 2.62 | 0 | 3.38 | 0 | 0 | 0 | 0 | 0 | 33.2 | 0.1 | 0 | 0 | 0 | 0 | 0 | 0
